Experimental findings from PubChem BioAssay AID2685 (National Center for Advancing Translational Sciences (NCATS), 2010) are described below.

The list shows a part of the results. These are further read-outs of the screen, such as a control signal, another cell line or another target. No call is given for them. Compounds called inactive in the main read-out are mostly missing here. The note in brackets gives the kind of curve behind each potency; many fits are weak.

The assay can be described thus: qHTS Assay for Lipid Storage Modulators in Drosophila S3 Cells.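 On cell number change: cells counted by Cell Tracker Red CMTPX staining in the red channel.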 Particulars: BODIPY lipid droplet fluorescence, 18-24 h; for cell number change: measured here: cell count max response, cells fed with added oleic acid. Put shortly: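 Drosophila S3 cells got compounds at several concentrations plus oleic acid (400 uM solution). Laser-scanning cytometry with 488 nm excitation read lipid droplets at 500-530 nm and cells at 575-640 nm. Percent activity was relative to 20 uM Triacsin C.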
A general note: Quantitative high-throughput screening tests each substance at several concentrations.

[1] abbreviates: measured here: cell number channel AC50, cells fed with added oleic acid.
Where [2] appears, read: measured here: lipid fluorescence (Fed channel) AC50, cells fed with added oleic acid.

With `COc1cc(CN2C(=O)C(NC(=O)c3ccco3)(C(F)(F)F)C3=C2CC(C)(C)CC3=O)cc(OC)c1` (configuration not stated), the cell number change was found to be 6.62%. Also, under setting [1], the half-maximal activity concentration (AC50) is 1.16 µM [falling, partial curve, poor fit]. Moreover, the half-maximal activity concentration (AC50) under setting [2] is 3.66 µM [falling, single point].
Regarding `CSc1nnnn1-c1cccc(O)c1`, the cell number change is -2.63%. For the same compound, the concentration at half-maximal activity (AC50) under setting [2] is 11.6 µM [rising, single point].
Turning to `Cc1cc(C)nc(SCC(=O)NCC2COc3ccccc3O2)n1` (configuration not stated), the cell number change is -3.03%. Under setting [2], the half-maximal activity concentration (AC50) was 25.9 µM [rising, single point].
In the case of `O=C(O)c1ccc(N2C(=O)C3ON(c4ccccc4)C(c4ccccc4F)C3C2=O)cc1` (configuration not stated), the cell number change was -18.6%. For the same compound, under setting [2], the AC50 is 18.4 µM [falling, partial curve].
In the case of `Cc1[nH]c(=O)[nH]c(=O)c1S(=O)(=O)N1CCOCC1`, the cell number change was -12.8%.
As for `CCCNC(=O)c1cc(S(=O)(=O)N2CCCCC2)ccc1N1CCOCC1`, the cell number change is -50%. In addition, the concentration at half-maximal activity (AC50) under setting [1] is 10.3 µM [falling, single point].
Turning to `COc1ccc(C(=O)C[n+]2ccc(-c3nnc4n3CCCCC4)cc2)cc1`, the cell number change was 6.19%. Under setting [1], the half-maximal activity concentration (AC50) was 1.46 µM [rising, single point].
As for `Cc1ccc(C(=O)NCCC2=CCCCC2)cc1S(=O)(=O)N1CCCCC1`, the cell number change is -13.4%. The half-maximal activity concentration (AC50) under setting [1] is 0.366 µM [falling, partial curve, poor fit]. For the same compound, the AC50 under setting [2] was 0.517 µM [falling, full curve].
For the compound `Cc1c(C(=O)N2CC(C)OC(C)C2)oc2ccccc12` (configuration not stated), the cell number change was -3.9%. Besides, under setting [1], the half-maximal activity concentration (AC50) is 0.082 µM [falling, full curve, poor fit].
For `CC(=O)Nc1ccc(Cc2nc3ccccc3[nH]2)cc1`, the cell number change is -7.3%. For the same compound, under setting [1], the concentration at half-maximal activity (AC50) was 3.26 µM [falling, single point].
In the case of `COc1cc(/C=C/C(=O)N2CCC=CC2=O)cc(OC)c1OC`, the cell number change is -23.4%. Besides, under setting [2], the half-maximal activity concentration (AC50) was 18.4 µM [falling, single point].
As for `COc1cccc(C(=O)CN(C(=O)c2ccc(Cl)cc2Cl)N2C(=O)c3ccccc3C2=O)c1`, the cell number change came out at 10%. Moreover, the AC50 under setting [1] was 6.51 µM [rising, single point].
For `C/C(CCN1CCc2nc(-c3ccccc3)c(-c3ccccc3)cc2C1)=N\O[C@@H](C)c1cc(-c2c(C)cc(C)cc2C)no1`, the cell number change is 13.8%. Also, under setting [2], the concentration at half-maximal activity (AC50) is 0.116 µM [rising, full curve, poor fit].
With `CCOC(=O)C1=C(C)Nc2ccccc2N=C1NC(=O)CCCN1C(=O)c2ccccc2C1=O`, the cell number change came out at 7.59%. The concentration at half-maximal activity (AC50) under setting [2] is 1.64 µM [rising, partial curve].
As to `CC(=O)N(CCc1ccccc1)Cc1cc2ccc(C)c(C)c2[nH]c1=O`, the cell number change was -19.3%. For the same compound, under setting [2], the half-maximal activity concentration (AC50) was 0.231 µM [falling, full curve, poor fit].
In the case of `C/C(Cl)=C\Cn1c(Nc2cccc(C)c2)nc2c1c(=O)n(C)c(=O)n2C`, under setting [1], the AC50 was 0.103 µM [rising, full curve, poor fit].
Consider `Cc1ccc(NC2=C(C(=O)c3ccccc3)N(C)S(=O)(=O)c3ccccc32)cc1`, for which the cell number change was -14.3%. Besides, under setting [2], the concentration at half-maximal activity (AC50) is 13 µM [falling, single point].
In the case of `O=C1C2C3C=CC(C2C(=O)N1c1ccc(O)cc1)C1C2C(=O)N(c4ccc(O)cc4)C(=O)C2C31` (configuration not stated), the cell number change is -17.8%. In addition, under setting [2], the concentration at half-maximal activity (AC50) was 0.103 µM [falling, full curve, poor fit].
On to `COCCN1CCN(C(=O)C2CCC(=O)N(CCc3ccccc3)C2)CC1` (configuration not stated), for which the cell number change came out at 7.92%. Moreover, under setting [2], the AC50 was 0.58 µM [falling, single point].
Take `CC(C)(C)c1ccc(CSc2nnc(-c3ccccc3NC(=O)c3ccccc3)o2)cc1`: the cell number change came to 42.3%. For the same compound, the AC50 under setting [1] is 5.8 µM [rising, partial curve]. Moreover, the AC50 under setting [2] is 9.2 µM [rising, partial curve].
In the case of `N#CCc1c(C#N)c(N)nc(N2CCN(c3ccc(F)cc3)CC2)c1C#N`, the concentration at half-maximal activity (AC50) under setting [2] was 2.31 µM [rising, partial curve].
As for `O=C1CC2(CON=C2c2ccc(F)cc2)C(=O)N1c1ccc(F)cc1` (configuration not stated), the cell number change is 2.62%.
Take `Cc1ccnc2nc(C(=O)OCCOc3cccc(Br)c3)nn12`: the cell number change is 16.9%. The AC50 under setting [2] is 0.92 µM [falling, full curve].
As to `COc1ccc(-c2cn3ccccc3n2)cc1[N+](=O)[O-]`, under setting [2], the AC50 is 6.51 µM [rising, single point].
On to `CCOC(=O)Cc1csc(SCC(=O)c2c(N)n(CC(C)C)c(=O)n(C)c2=O)n1`, for which the cell number change is -32.5%. Also, under setting [1], the AC50 was 4.61 µM [falling, full curve]. Besides, the AC50 under setting [2] was 0.00731 µM [falling, full curve, poor fit].
For `CCC(C)C(=O)Nc1ccc([N+](=O)[O-])cc1OC` (configuration not stated), the cell number change is -8.9%.
As to `Cc1cccc(-c2nnn3c2nc(NCCc2ccc(S(N)(=O)=O)cc2)c2ccccc23)c1`, the AC50 is 1.84 µM [falling, partial curve] under setting [1] and 1.84 µM [falling, partial curve] under setting [2].
`Cc1ccc(S(=O)(=O)N2CCCC2)cc1[N+](=O)[O-]`: the cell number change was 12%. Further, the AC50 under setting [2] was 6.51 µM [falling, single point].
For the compound `C/C(=N\NC(=O)COc1ccccc1)c1cccs1`, the cell number change is 117%. Besides, the AC50 under setting [1] was 0.231 µM [rising, full curve, poor fit]. Besides, the half-maximal activity concentration (AC50) under setting [2] is 2.91 µM [rising, partial curve, poor fit].
In the case of `CCc1nn(CC(=O)N(C)C2CCCCC2)c(=O)c2cc3cc(C)ccc3n12`, the cell number change is 25.4%. Further, the half-maximal activity concentration (AC50) under setting [2] is 29.1 µM [rising, single point].
For the compound `Cc1ccc(NC(=O)COC(=O)CCOc2ccccc2C)cc1`, the cell number change is -2.87%. Also, the concentration at half-maximal activity (AC50) under setting [2] is 0.651 µM [falling, single point].
Consider `Cc1nc(-c2ccc(Cl)cc2)sc1C1(C)CC(c2ccc(OC(F)(F)F)cc2)=NO1` (configuration not stated), for which the cell number change is -38.2%. Besides, the AC50 under setting [1] is 0.82 µM [falling, full curve].
In the case of `COc1ccccc1NC(=O)/C(=C\c1cccnc1)NC(=O)c1ccccc1`, the cell number change stood at 10.5%.
As to `CCN1CCc2c(OCC(=O)N3CCCCC3)cccc2C1=O`, the cell number change was determined as 20.6%. The AC50 under setting [1] is 6.51 µM [rising, single point]. Besides, the half-maximal activity concentration (AC50) under setting [2] was 1.3 µM [rising, single point].
Turning to `N=c1nc(SCCC(=O)O)ss1`, the cell number change is -39.3%. Also, under setting [1], the half-maximal activity concentration (AC50) was 0.461 µM [falling, full curve, poor fit]. Under setting [2], the concentration at half-maximal activity (AC50) was 18.4 µM [falling, partial curve].
With `Cc1ccc2c(c1)C=CC(C#N)N2C(=O)c1ccccc1` (configuration not stated), the concentration at half-maximal activity (AC50) by setting is: under setting [1], 0.651 µM [rising, full curve]; under setting [2], 0.92 µM [rising, full curve].

By AC50 is commonly meant the concentration giving half of the maximal activity seen.
